Source: ChEMBL document CHEMBL3988442, “University of Dundee, Small-Polar-MMV Screening Library” (2021).

By UniProt entry, the sequences of proteins in these tests, tags left out.
UniProt E9BF75, entry or part of it: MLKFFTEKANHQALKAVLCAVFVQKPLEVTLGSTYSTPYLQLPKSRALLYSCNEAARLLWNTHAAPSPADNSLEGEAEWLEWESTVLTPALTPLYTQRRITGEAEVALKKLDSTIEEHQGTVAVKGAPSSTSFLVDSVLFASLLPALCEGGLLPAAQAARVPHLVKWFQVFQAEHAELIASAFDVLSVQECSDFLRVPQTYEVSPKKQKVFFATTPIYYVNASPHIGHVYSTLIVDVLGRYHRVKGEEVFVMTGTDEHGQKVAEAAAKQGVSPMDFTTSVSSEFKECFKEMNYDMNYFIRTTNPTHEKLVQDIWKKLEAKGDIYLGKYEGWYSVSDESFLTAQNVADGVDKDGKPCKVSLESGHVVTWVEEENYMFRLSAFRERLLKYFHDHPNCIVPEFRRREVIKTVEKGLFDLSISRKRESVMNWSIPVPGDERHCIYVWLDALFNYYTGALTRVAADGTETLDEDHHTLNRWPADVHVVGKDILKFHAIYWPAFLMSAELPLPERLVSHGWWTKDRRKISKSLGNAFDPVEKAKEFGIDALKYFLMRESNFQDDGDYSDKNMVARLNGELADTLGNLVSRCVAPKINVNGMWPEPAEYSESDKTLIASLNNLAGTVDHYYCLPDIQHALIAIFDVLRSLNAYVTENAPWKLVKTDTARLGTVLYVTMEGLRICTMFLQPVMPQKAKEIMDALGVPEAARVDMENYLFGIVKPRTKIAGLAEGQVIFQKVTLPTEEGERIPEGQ

A: 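Primary screen of methionyl-tRNA synthetase; the read-out is not stated. Target: Methionyl-tRNA synthetase (putative), Leishmania donovani (UniProt E9BF75). The test concentration is not given. Values are per cent inhibition. Size under these conditions: about 68,000 compounds, about 24 of them at 50% or above in at least one test.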
B: 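Assay on Mycobacterium tuberculosis, filed only as a heat shock assay from Cornell; the read-out is not stated. The concentration is filed as 10 mM, unlikely as a test dose, so the dose is not known. Direction is inferred from retests: higher values go with stronger inhibition. Of about 69,000 compounds tested this way, about 930 (1.4%) reached 50% or more in at least one test.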

All values are in %.
The record does not define 0% and 100%; most values in the screen are far below 50% and negative numbers occur (in some assays of this library far below -100).
The compounds are a random part of those screened.
A dash means the value is not listed here; it may have been measured.

Compound | A | B
CC(C)N(Cc1ccccn1)C(=O)CCC(=O)c1ccccc1 | 8.659 | 5.333
Cc1ncccc1Oc1ncnc(N2CCCC(O)(CO)CC2)c1C (stereo not shown) | 19.38 | -3.393
Cc1nn(C)c2nc(N3CCC(C(O)c4ccccn4)CC3)sc12 (stereo not shown) | 10.06 | -6.791
OCC1CCCCN1Cc1nc(Cc2cccc(F)c2)no1 (stereo not shown) | 8.904 | -35.62
Cc1csc([C@H]2C[C@@H]3CCN(Cc4cnn(C)c4)C[C@H]3O2)n1 | 13.98 | -
Cc1ccsc1CN(Cc1nc2c(cnn2C)c(=O)[nH]1)C(C)C | 15.21 | 4.081
Cn1ccc2cc(C(=O)NC3CCOC(C)(C)C3)ccc21 (stereo not shown) | 14.56 | 18.31
c1cnc(N2CCCC3(CN(CC4CCOCC4)CCO3)C2)cn1 (stereo not shown) | 16.3 | -
Cc1cccc(-c2noc(CNC(C)Cn3cc(C)cn3)n2)c1 (stereo not shown) | 13.88 | -0.4408
COc1ccc(S(=O)(=O)NC(=O)c2c(C)noc2C(C)C)cc1OC | 10.97 | -7.459
CN(C)c1ncnc2c1CCN(C(=O)c1cccnc1)CC2.O=C(O)C(F)(F)F | - | -17.87
COCC1CN(C(=O)COc2ccccc2)Cc2ncn(C)c21.O=C(O)C(F)(F)F (stereo not shown) | - | -29.49
O=C([C@H]1CCCO1)N1CCCC2(COCCN(c3ccccc3)C2)C1 (stereo partly shown) | 7.143 | -
c1ccc(CCCN2CCOC(Cn3cccn3)C2)cc1 (stereo not shown) | 18.23 | -1.38
Clc1ccc(COCC2CCN(Cc3ccccn3)CC2)cc1 | 2.542 | -
CC(CC#N)N(C)Cc1ccccc1Cl (stereo not shown) | 7.317 | 1.529
Cn1cc(CN2CCC(F)(F)C3(CCN(c4ncc(F)cn4)C3)C2)cn1 (stereo not shown) | -2.87 | -
O=C(c1ccc[nH]1)N1CCOCC2(C1)CN(c1ccccc1)C(=O)CO2 (stereo not shown) | -80.27 | -15.44
Cn1ccnc1CN1CCc2onc(COCC3CC3)c2C1 | 13.74 | -
CC(=O)N1CCN(C(=O)c2sc(-c3ccccc3F)nc2C)CC1 | 0.9174 | -20.63
CS(=O)(=O)NCc1cncc2c1CCN(C(=O)c1ccccn1)C2 | 8.493 | -17.94
COCCOCC1CCN(C(=O)c2ccc3[nH]cnc3c2)C1 (stereo not shown) | -4.237 | -30.37
Cc1nccn1CCN(C)c1cc(C(C)C)nc2ccnn12 | 5.333 | -29.67
Cc1ccc(N2CCCN(C(=O)c3c(C)oc(C)c3C)CC2)nn1 | 20.28 | -0.8689
CN(CC1CCCN(S(C)(=O)=O)C1)c1cnn(C)c1 (stereo not shown) | 10.34 | -17.16
CCn1cnnc1CNc1nc(C)nc2scc(CC(C)C)c12 | 14.6 | 26.51
CN(C)C(=O)c1n[nH]c2c1CN(Cc1ccccn1)CC2.O=C(O)C(F)(F)F | - | -5.502
COCC1CN(C(=O)c2ccc(C)o2)Cc2nccn2C1 (stereo not shown) | 9.341 | -18.67
Cc1noc(C)c1C(=O)N1CC[C@]2(C[C@@H](OCc3cccnc3)CO2)C1 | 11.44 | -
Cc1cc2ccccc2n1CC(=O)NCC(=O)N1CCOCC1 | -10.3 | 8.029
COc1c[nH]c(C(=O)N2CCN(c3cccc(Cl)c3)CC2)cc1=O | 21.45 | -21.2
Cc1ccc2oc(C(=O)N3CCCC(n4cccn4)C3)cc2n1 (stereo not shown) | 9.726 | -11.78
[H][C@]12CCN(C(=O)C3CCCO3)CC[C@@]1([H])S(=O)(=O)N(CC(C)C)C2 (stereo partly shown) | - | -6.791
O=C1COc2cc(S(=O)(=O)NCCC3=CCCCC3)c(Cl)cc2N1 | 2.326 | 1.96
CN(CCO)CC1COCCN1C(=O)C1CCCCC1 (stereo not shown) | 16.62 | -
OCc1ccc(CN2CCC(n3cc(C4CCCCC4)nn3)CC2)o1 | 4.326 | -13.29
Cc1ccc(N2CCCN(CC3CC3)C(C(C)C)C2)nn1 (stereo not shown) | 11.17 | -10.45
CN1CCC2(CCN(Cc3nccs3)CC2)C1=O.O=C(O)C(F)(F)F | - | -18.01
Nc1nc2c(c(NCc3nccs3)n1)CCN(CC1CCCC1)CC2 | 16.1 | 8.533
Cc1cc(C)cc(C(=O)Nc2cccc(CN3CCCC3C(N)=O)c2)c1 (stereo not shown) | 0.5305 | -4.668
CNC(=O)[C@@H]1CN(C(=O)C(C)C)C[C@H]1c1ccnc(N2CCCC2)n1 | 18.55 | -
O=C(O)C(F)(F)F.[H][C@@]12CN(Cc3cccs3)CCO[C@]1([H])CN(S(=O)(=O)CC)C2 | - | -15.56
COc1ccc(-c2cc(C(=O)Nc3nc[nH]n3)[nH]n2)cc1 | 14.91 | 5.514
O=C1CCCCN1c1cccc(CNC2CCCC2)c1 | 9.028 | 13.9
CCC(=O)c1ccc(OCC(=O)NC(C)c2nnc(C)[nH]2)cc1 (stereo not shown) | 9.409 | 0.006047
CCN(C)c1ncnc2c1CCN(C(=O)N1CCOCC1)CC2 | -2.688 | -5.978
CNC(=O)[C@@H](C1CCCCC1)N1CCC[C@H]1C(=O)N(C)CCN(C)C | 2.198 | -
O=c1oc(-c2cccs2)nn1CC(O)c1ccc(F)cc1 (stereo not shown) | 11.71 | 17.08
CC(C)Nc1nc(-c2ccccc2)nc2c1CCN(C(=O)CC#N)CC2 | 16.54 | 32.03
COCCC(=O)NCC(O)c1c(F)cccc1F (stereo not shown) | 13.26 | -6.899
CCC1CN(C(=O)c2ccc(Cl)cc2O)CCN1C(C)C (stereo not shown) | 12.59 | 1.289
Cc1nnc(-c2cccc(C#N)c2)n1C1CCCN(C(C)C)C1=O (stereo not shown) | 18.58 | -15.62
O=C(C1=CCCC1)N1CCC[C@]2(C[C@@H](Oc3ncccc3F)CO2)C1.O=C(O)C(F)(F)F | - | 5.231
Cc1ccc2c(n1)N(Cc1ccncc1)CCN(S(C)(=O)=O)C2 | 3.333 | -
CCC(CO)N(Cc1cccnc1)C(=O)c1ccc(C(F)(F)F)nc1O (stereo not shown) | 16.86 | -28.14
CC(NC1CCN(CCS(C)(=O)=O)CC1)c1ccc(Cl)cc1 (stereo not shown) | 11.23 | -5.482
CC1COCCN1C(=O)NCCCn1ccnc1 (stereo not shown) | 11.03 | 2.72
CCc1nc(C)cn1C(=O)Nc1ccc(C)cc1 | 4.054 | 10.79
Cc1ccc(N(C)CC(O)COCc2ccccc2)c(C)c1 (stereo not shown) | 3.623 | -30.79
O=c1n(CCSCCOc2ccc(Br)cc2)nc2ccccn12 | 10.19 | -15.44
CN(C)C(=O)N1CCC2(CC1)CNc1ccc(F)cc12.Cl | - | -11.75
Cc1nnc2n1CCN(C(=O)c1cc(C)n(-c3cccnc3)c1C)C2 | 13.71 | 4.185
COCC1CN(C(=O)c2cnc(C)cn2)Cc2ncnn2C1 (stereo not shown) | 9.14 | 0.4819
CC(C)c1nccn1C1CCCN(C(=O)c2ccc3nncn3c2)C1 (stereo not shown) | 14.53 | -25.02
CNc1ncc(CN(C)CCN2CCCCC2)cn1 | 1.064 | -2.569
O=C(c1ccc(CN2CCCCC2)cc1)N1Cc2cnn(CCO)c2C1 | 3.046 | -10.65
Cn1ncc2c(=O)[nH]c(CN3CCc4sccc4C3)nc21 | 11.73 | -21.63
N#Cc1ccc(CN2C(=O)c3ccccc3CS2(=O)=O)cc1 | -19.34 | -4.215
O=C(NC1CCNC1)C1(N2CCCCC2)Cc2ccccc2C1 (stereo not shown) | 19.2 | 12.27
O=C(CN1CC(n2cccn2)C1)NCCCN1CCCC1=O | 5.556 | -20.58
CCc1oc(C(=O)N2CCCC(c3nnn[nH]3)C2)cc1C (stereo not shown) | 10.43 | 10.34
CC(C)NC(=O)N1CCCC2(CC(C(=O)Nc3ccccc3)=NO2)C1 (stereo not shown) | 11.68 | -32.22
Cc1cccc(-n2ncc(C(=O)NCC3CCS(=O)(=O)C3)c2C)c1 (stereo not shown) | 10.24 | -3.183

Once more, the final 5:

- O=C(NC1CCNC1)C1(N2CCCCC2)Cc2ccccc2C1 (stereo not shown) | A: 19.2%; B: 12.27%
- O=C(CN1CC(n2cccn2)C1)NCCCN1CCCC1=O | A: 5.556%; B: -20.58%
- CCc1oc(C(=O)N2CCCC(c3nnn[nH]3)C2)cc1C (stereo not shown) | A: 10.43%; B: 10.34%
- CC(C)NC(=O)N1CCCC2(CC(C(=O)Nc3ccccc3)=NO2)C1 (stereo not shown) | A: 11.68%; B: -32.22%
- Cc1cccc(-n2ncc(C(=O)NCC3CCS(=O)(=O)C3)c2C)c1 (stereo not shown) | A: 10.24%; B: -3.183%